Test results taken from publication PMC7486386.
These are yes or no findings as the source states them, for the method shown. In cells and extracts the contact can be indirect. Some binding calls cover weakened binding; strength is not graded here.

The chains behind the UniProt entries cited, without tags or fusion partners.
UniProt P16220: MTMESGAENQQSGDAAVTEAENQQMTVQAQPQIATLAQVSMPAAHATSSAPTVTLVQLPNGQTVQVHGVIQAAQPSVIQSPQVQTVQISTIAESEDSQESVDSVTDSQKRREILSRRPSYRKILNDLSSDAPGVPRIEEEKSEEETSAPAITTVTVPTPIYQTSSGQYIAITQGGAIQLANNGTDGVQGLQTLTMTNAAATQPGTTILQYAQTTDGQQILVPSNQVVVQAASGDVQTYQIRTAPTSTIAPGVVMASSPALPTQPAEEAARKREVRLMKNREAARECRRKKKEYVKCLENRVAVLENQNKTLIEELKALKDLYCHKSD
UniProt Q92793: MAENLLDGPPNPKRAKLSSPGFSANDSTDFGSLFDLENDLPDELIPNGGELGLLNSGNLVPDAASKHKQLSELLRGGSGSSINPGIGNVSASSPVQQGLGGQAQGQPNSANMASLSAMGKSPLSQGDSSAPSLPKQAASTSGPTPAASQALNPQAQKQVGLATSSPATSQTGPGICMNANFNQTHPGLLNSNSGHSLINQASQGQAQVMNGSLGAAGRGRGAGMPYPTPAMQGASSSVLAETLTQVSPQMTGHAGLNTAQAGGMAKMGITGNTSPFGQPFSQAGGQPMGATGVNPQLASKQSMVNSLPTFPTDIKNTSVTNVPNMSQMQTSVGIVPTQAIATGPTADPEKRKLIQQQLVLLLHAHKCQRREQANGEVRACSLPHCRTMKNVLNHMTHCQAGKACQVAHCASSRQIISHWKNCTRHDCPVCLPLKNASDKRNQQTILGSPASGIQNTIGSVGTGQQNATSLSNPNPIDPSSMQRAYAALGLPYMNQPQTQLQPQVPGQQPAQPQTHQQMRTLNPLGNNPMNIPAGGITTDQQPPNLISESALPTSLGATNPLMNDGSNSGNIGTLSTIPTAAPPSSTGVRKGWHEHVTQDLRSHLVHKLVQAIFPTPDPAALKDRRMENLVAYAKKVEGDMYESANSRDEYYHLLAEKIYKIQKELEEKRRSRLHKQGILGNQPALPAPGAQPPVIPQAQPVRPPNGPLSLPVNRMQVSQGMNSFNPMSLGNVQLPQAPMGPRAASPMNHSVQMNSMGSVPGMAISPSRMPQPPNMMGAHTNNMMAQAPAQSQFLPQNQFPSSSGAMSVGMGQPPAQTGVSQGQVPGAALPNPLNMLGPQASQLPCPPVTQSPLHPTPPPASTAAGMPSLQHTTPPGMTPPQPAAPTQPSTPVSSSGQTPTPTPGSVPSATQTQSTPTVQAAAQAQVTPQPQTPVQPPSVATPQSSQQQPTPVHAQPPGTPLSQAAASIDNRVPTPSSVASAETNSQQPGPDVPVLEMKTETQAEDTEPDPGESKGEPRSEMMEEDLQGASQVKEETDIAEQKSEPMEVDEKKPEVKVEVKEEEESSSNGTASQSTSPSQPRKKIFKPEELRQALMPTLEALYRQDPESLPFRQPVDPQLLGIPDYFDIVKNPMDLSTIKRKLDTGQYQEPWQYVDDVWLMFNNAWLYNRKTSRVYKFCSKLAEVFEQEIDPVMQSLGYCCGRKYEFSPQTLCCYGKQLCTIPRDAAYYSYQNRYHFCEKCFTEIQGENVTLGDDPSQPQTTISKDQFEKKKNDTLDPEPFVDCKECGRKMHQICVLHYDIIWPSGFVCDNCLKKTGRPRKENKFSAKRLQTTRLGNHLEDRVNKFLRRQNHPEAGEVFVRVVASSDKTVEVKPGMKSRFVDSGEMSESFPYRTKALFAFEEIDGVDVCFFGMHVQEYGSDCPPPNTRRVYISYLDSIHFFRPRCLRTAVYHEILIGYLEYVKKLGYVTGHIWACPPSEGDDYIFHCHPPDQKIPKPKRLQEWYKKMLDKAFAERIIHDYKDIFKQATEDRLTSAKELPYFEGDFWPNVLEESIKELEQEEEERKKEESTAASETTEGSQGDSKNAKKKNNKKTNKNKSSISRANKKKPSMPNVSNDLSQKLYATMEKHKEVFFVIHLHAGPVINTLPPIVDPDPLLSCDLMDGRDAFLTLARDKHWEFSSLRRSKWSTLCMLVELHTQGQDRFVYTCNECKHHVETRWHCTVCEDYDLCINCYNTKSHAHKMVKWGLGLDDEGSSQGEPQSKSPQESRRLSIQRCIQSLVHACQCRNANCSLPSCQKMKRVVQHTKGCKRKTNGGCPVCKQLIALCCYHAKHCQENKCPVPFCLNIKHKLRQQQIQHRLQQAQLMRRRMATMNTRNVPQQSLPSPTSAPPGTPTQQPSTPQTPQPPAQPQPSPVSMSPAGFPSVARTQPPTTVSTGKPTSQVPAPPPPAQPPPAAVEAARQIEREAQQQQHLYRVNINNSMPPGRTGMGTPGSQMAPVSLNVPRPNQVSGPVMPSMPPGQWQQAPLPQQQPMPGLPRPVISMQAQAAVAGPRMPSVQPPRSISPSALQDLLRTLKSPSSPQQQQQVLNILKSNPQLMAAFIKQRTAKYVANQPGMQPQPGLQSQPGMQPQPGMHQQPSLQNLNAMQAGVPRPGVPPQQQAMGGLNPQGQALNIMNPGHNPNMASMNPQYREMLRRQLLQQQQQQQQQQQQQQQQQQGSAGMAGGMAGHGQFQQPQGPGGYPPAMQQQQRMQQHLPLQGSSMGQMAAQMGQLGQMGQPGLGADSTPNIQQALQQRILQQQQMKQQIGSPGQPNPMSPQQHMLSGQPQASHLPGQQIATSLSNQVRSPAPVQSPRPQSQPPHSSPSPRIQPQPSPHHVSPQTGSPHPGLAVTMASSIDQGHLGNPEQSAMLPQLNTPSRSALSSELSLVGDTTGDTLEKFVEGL

Target: CREB (UniProt P16220)
Test: co-IP; HepG2 cells treated with 3 uM A-485 (with or without 8-Br-cAMP); lysates incubated with indicated antibodies for 2 h, then with protein A/G-agarose beads overnight at 4 C; western blot

Row | Molecule | binding
1 | CREB-binding protein (from UniProt Q92793 1-2442) | binds
2 | TORC2 (protein, UniProt Q53ET0 1-693) MATSGANGPGSATASASNPRKFSEKIALQKQRQAEETAAFEEVMMDIGSTRLQAQKLRLAYTRSSHYGGSLPNVNQIGSGLAEFQSPLHSPLDSSRSTRHHGLVERVQRDPRRMVSPLRRYTRHIDSSPYSPAYLSPPPESSWRRTMAWGNFPAEKGQLFRLPSALNRTSSDSALHTSVMNPSPQDTYPGPTPPSILPSRRGGILDGEMDPKVPAIEENLLDDKHLLKPWDAKKLSSSSSRPRSCEVPGINIFPSPDQPANVPVLPPAMNTGGSLPDLTNLHFPPPLPTPLDPEETAYPSLSGGNSTSNLTHTMTHLGISRGMGLGPGYDAPGLHSPLSHPSLQSSLSNPNLQASLSSPQPQLQGSHSHPSLPASSLARHVLPTTSLGHPSLSAPALSSSSSSSSTSSPVLGAPSYPASTPGASPHHRRVPLSPLSLLAGPADARRSQQQLPKQFSPTMSPTLSSITQGVPLDTSKLSTDQRLPPYPYSSPSLVLPTQPHTPKSLQQPGLPSQSCSVQSSGGQPPGRQSHYGTPYPPGPSGHGQQSYHRPMSDFNLGNLEQFSMESPSASLVLDPPGFSEGPGFLGGEGPMGGPQDPHTFNHQNLTHCSRHGSGPNIILTGDSSPGFSKEIAAALAGVPGFEVSAAGLELGLGLEDELRMEPLGLEGLNMLSDPCALLPDPAVEESFRSDRLQ | binds
